In the supplement of paper PMC10689618:
Structures can show the parent of a compound that is named as a salt. Some of the results follow. Many values rest on one well or one pass, so single values are uncertain.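 Labelled rat cortical synaptosomes were engulfed by primary human fetal astrocytes. Engulfment equaled a red/green ratio, corrected for calcein live-cell signal and normalized to the plate median. Compounds were toxic when calcein dropped over 30%, and reduced phagocytosis when below 70% of the median above 5 µM.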

Columns and labels:
[1] = tested on: Human fetal astrocytes; assay: loss of total cells relative to no-compound high-control median (toxicity); higher = more toxic (fewer cells); conditions: 24 h
[2] = tested on: Human fetal astrocytes; assay: synaptosome phagocytosis (pHrodo/calcein intensity ratio) relative to plate median of data wells; higher = more phagocytosis; conditions: 24 h

Row | Compound | loss of total cells ([1]; 1.39 µM) [%] | loss of total cells ([1]; 2.78 µM) [%] | loss of total cells ([1]; 5.56 µM) [%] | loss of total cells ([1]; 11.11 µM) [%] | loss of total cells ([1]; 22.22 µM) [%] | synaptosome phagocytosis ([2]; 1.39 µM) [%] | synaptosome phagocytosis ([2]; 2.78 µM) [%] | synaptosome phagocytosis ([2]; 5.56 µM) [%] | synaptosome phagocytosis ([2]; 11.11 µM) [%] | synaptosome phagocytosis ([2]; 22.22 µM) [%]
1 | COc1c(N2C[C@@H]3CCCN[C@@H]3C2)c(F)cc2c(=O)c(C(=O)O)cn(C3CC3)c12 | -22.6 | -34.9 | 4.3 | 30.5 | 6.5 | 115 | 103 | 110 | 105 | 88.6
2 | CN(N=O)C(=O)N[C@@H]1[C@@H](O)[C@H](O)[C@@H](CO)O[C@@H]1O | 1.5 | -22.7 | -11.8 | -8.4 | 2.7 | 92 | 138 | 89.9 | 108 | 110
3 | COC(=O)[C@H](c1ccccc1Cl)N1CCc2sccc2C1 | -43.5 | -19.8 | -4.3 | 27.9 | 12.8 | 90.8 | 96 | 117 | 124 | 98.2
4 | CC1c2cccc(O)c2C(O)=C2C(=O)C3(O)C(O)=C(C(N)=O)C(=O)C(N(C)C)C3C(O)C21 (stereo not given) [Doxycycline hydrochloride] | -0.3 | -21.4 | 4.9 | -2.6 | -22.2 | 126 | 120 | 90.4 | 109 | 90.2
5 | CN1CCc2cccc3c2[C@H]1Cc1ccc(O)c(O)c1-3 | -3.3 | 12.5 | 17.1 | 34.4 | 51.6 | 71.4 | 82 | 65.8 | 19.8 | 2
6 | COC1=CC(=O)C[C@@H](C)[C@]12Oc1c(Cl)c(OC)cc(OC)c1C2=O | -2.5 | 8.2 | 11.1 | 12.5 | 17.6 | 98.6 | 113 | 116 | 94.6 | 127
7 | CN(C)CC/C=C1/c2ccccc2Sc2ccc(Cl)cc21 | -37.1 | 25.4 | 15.5 | 47.5 | 55.1 | 87.8 | 111 | 86.9 | 48.8 | 22.7
8 | O=C1C=CC(=C(c2ccc(O)cc2)c2ccc(O)cc2)C=C1 | 11.2 | 10.5 | 7.2 | 2.1 | 3.8 | 106 | 108 | 99.7 | 154 | 124
9 | O=C(O)Cc1cc(I)c(Oc2ccc(O)c(I)c2)c(I)c1 | 11.9 | 26.4 | 19.6 | 13.8 | 25.8 | 94 | 82.6 | 101 | 113 | 105
10 | Nc1ccc(S(=O)(=O)c2ccc(N)cc2)cc1 | 6.2 | -22.7 | 0 | 2.6 | -2.1 | 89.6 | 99.2 | 93.6 | 95.1 | 92.4
11 | CC1(C)O[C@@H]2C[C@H]3[C@@H]4C[C@H](F)C5=CC(=O)CC[C@]5(C)[C@H]4[C@@H](O)C[C@]3(C)[C@]2(C(=O)CO)O1 | 0 | 5.8 | 0.9 | 1.6 | -0.6 | 78.4 | 86.3 | 88.7 | 65.6 | 126
12 | CN(C)CCC=C1c2ccccc2COc2ccccc21 [Doxepin] | 3.9 | -3.1 | 0 | 1.4 | -10 | 94.6 | 99.1 | 50.8 | 88.9 | 90
13 | C=C(C)[C@H]1COc2cc3oc(=O)ccc3cc2O1 | 12.7 | -6.6 | -3.8 | 40 | 9.3 | 127 | 68.8 | 119 | 139 | 131
14 | CC(C)(Sc1cc(C(C)(C)C)c(O)c(C(C)(C)C)c1)Sc1cc(C(C)(C)C)c(O)c(C(C)(C)C)c1 | -15.8 | -13.1 | -3.9 | -20.3 | 14.7 | 107 | 78.8 | 108 | 108 | 103
15 | O=C(O)c1ccccc1 | -31.5 | -54 | -5.6 | -11.5 | 2.8 | 88.1 | 114 | 105 | 82.6 | 118
16 | COc1cc(C(=O)N2CCOCC2)cc(OC)c1OC | 15.3 | -35.7 | 9.3 | -12.8 | 0.3 | 157 | 96.5 | 99.3 | 103 | 93.1
17 | COc1cc2ccc(=O)oc2c(O)c1O | -33.6 | 3.2 | -19 | 14.2 | 18.5 | 107 | 100 | 93.9 | 92.8 | 92.7
18 | COc1ccc(-c2cc(=O)c3c(O)c(OC)c(O[C@@H]4O[C@H](CO[C@@H]5O[C@@H](C)[C@H](O)[C@@H](O)[C@H]5O)[C@@H](O)[C@H](O)[C@H]4O)cc3o2)cc1 | -5.4 | 8.6 | -6.1 | -22.6 | -5.6 | 126 | 124 | 98.9 | 108 | 151
19 | N=C(N)NC(=N)NCCc1ccccc1 | -33.2 | -19.8 | 2.7 | -14.8 | 11.3 | 107 | 104 | 87 | 63 | 97.1

Row | Compound | loss of total cells ([1]; 1.39 µM) [%] | loss of total cells ([1]; 2.78 µM) [%] | loss of total cells ([1]; 5.56 µM) [%] | loss of total cells ([1]; 11.11 µM) [%] | loss of total cells ([1]; 22.22 µM) [%] | synaptosome phagocytosis ([2]; 1.39 µM) [%] | synaptosome phagocytosis ([2]; 2.78 µM) [%] | synaptosome phagocytosis ([2]; 5.56 µM) [%] | synaptosome phagocytosis ([2]; 11.11 µM) [%] | synaptosome phagocytosis ([2]; 22.22 µM) [%]
20 | CC(C)Cn1c(=O)n(C)c(=O)c2[nH]cnc21 | -19.7 | -7.6 | 14.7 | 14.9 | -3 | 122 | 85.1 | 112 | 94.3 | 102
21 | CC1=Nc2ccc(Cl)cc2S(=O)(=O)N1 [Diazoxide] | 8.3 | 7.3 | -20.6 | 18.1 | 17.4 | 138 | 101 | 97.3 | 106 | 104
22 | CC1(C)S[C@@H]2[C@H](NC(=O)[C@H](C(=O)O)c3ccsc3)C(=O)N2[C@H]1C(=O)O | -33.1 | -20.6 | -12.4 | 23.9 | -3.4 | 114 | 94.4 | 86.2 | 128 | 99.8
23 | Nc1ccc(O)c(C(=O)O)c1 [5-Amino-2-hydroxy-benzoic acid] | -12 | 12 | -27.5 | 11 | -3.3 | 131 | 123 | 106 | 116 | 135
24 | FC(F)(F)COCC(F)(F)F | -7.6 | 6.6 | 34.4 | 44.5 | -4.1 | 79.9 | 103 | 120 | 120 | 96.7
25 | CCCCN(CCCC)CCCOC(=O)c1ccc(N)cc1 | -23.4 | -7.1 | -8.1 | 39 | 4 | 100 | 132 | 84.3 | 138 | 79
26 | Cn1c(=O)c2nc(C3CCCC3)[nH]c2n(C)c1=O | 11.2 | 10.5 | 10.1 | -4.6 | 18.9 | 110 | 130 | 96.8 | 87 | 128
27 | Oc1c(I)cc(I)c2cccnc12 | 15.7 | -18 | -2.1 | 22.2 | 16.1 | 129 | 114 | 82.5 | 43.9 | 86.8
28 | C=C1CC[C@@H]2[C@](C)(CO)[C@H](O)CC[C@@]2(C)[C@@H]1C/C=C1/C(=O)OC[C@H]1O | -29.5 | 6.9 | -14.7 | 10.1 | 1.5 | 112 | 111 | 114 | 113 | 84.6
29 | Clc1ccccc1CN1CCc2sccc2C1 | -26.6 | -7.9 | 6.2 | 37 | 4.7 | 79.7 | 93 | 110 | 110 | 94.7
30 | Cc1ccc(-c2cc(C(F)(F)F)nn2-c2ccc(S(N)(=O)=O)cc2)cc1 | -51.6 | -16.7 | -0.6 | -4.9 | 3.4 | 94.5 | 131 | 95 | 84.5 | 105
31 | CC(=O)OCC[N+](C)(C)C | -10 | -9.5 | -6.9 | -11.7 | 16.4 | 123 | 113 | 90.5 | 139 | 102
32 | Oc1ccc(/C=C/c2cc(O)cc(O)c2)cc1 [5-[2-(4-hydroxyphenyl)vinyl]-1,3-benzenediol] | -36.1 | -9 | 21.2 | 10.8 | 15.6 | 86.7 | 91.5 | 120 | 114 | 99.3
33 | Cc1c2oc3c(C)ccc(C(=O)N[C@@H]4C(=O)N[C@H](C(C)C)C(=O)N5CCC[C@H]5C(=O)N(C)CC(=O)N(C)[C@@H](C(C)C)C(=O)O[C@@H]4C)c3nc-2c(C(=O)N[C@@H]2C(=O)N[C@H](C(C)C)C(=O)N3CCC[C@H]3C(=O)N(C)CC(=O)N(C)[C@@H](C(C)C)C(=O)O[C@@H]2C)c(N)c1=O [actinomycin D] | -0.8 | 7 | 14.1 | -1.6 | 10.2 | 53.9 | 87.2 | 67.2 | 96.5 | 59.1
34 | C=C[C@H]1CN2CC[C@H]1C[C@@H]2[C@@H](O)c1ccnc2ccc(OC)cc12 | 6.2 | -20 | -14.6 | 3.7 | -2.1 | 83.2 | 74.7 | 97.3 | 86.7 | 112
35 | O=c1c(-c2ccc(O)cc2)coc2c([C@@H]3O[C@H](CO)[C@@H](O)[C@H](O)[C@H]3O)c(O)ccc12 | -18.9 | 8.3 | -14.7 | 15.5 | 13.3 | 116 | 107 | 127 | 127 | 108
36 | COc1cc([C@@H]2c3cc4c(cc3[C@@H](O[C@@H]3O[C@@H]5CO[C@@H](c6cccs6)O[C@H]5[C@H](O)[C@H]3O)[C@H]3COC(=O)[C@H]23)OCO4)cc(OC)c1O [EPT PTG Vehem Vumon VM 26 Teniposide Veham-Sandoz] | -14.9 | 10.1 | 15.9 | 26.6 | 19.8 | 97.2 | 123 | 129 | 87.8 | 118
37 | Nc1ccc(C(=O)O)cc1 | -4.1 | 2.1 | 6.9 | 0.8 | -13.6 | 89.4 | 104 | 84.9 | 83.6 | 83.5
38 | CC(C)CCCCC(=O)N[C@@H](CCN)C(=O)N[C@@H](CN[C@@H](CCN)C(=O)N[C@H]1CCNC(=O)[C@H]([C@@H](C)O)NC(=O)[C@H](CCN)NC(=O)[C@H](CCN)NC(=O)[C@H](CC(C)C)NC(=O)[C@@H](CC(C)C)NC(=O)[C@H](CCN)NC1=O)[C@@H](C)O.CCC(C)CCCCC(=O)N[C@@H](CCN)C(=O)N[C@@H](CN[C@@H](CCN)C(=O)N[C@H]1CCNC(=O)[C@H]([C@@H](C)O)NC(=O)[C@H](CCN)NC(=O)[C@H](CCN)NC(=O)[C@H](CC(C)C)NC(=O)[C@@H](CC(C)C)NC(=O)[C@H](CCN)NC1=O)[C@@H](C)O (stereo not given in full) | -16.3 | 2.7 | 38.9 | -11.6 | 13.7 | 104 | 102 | 165 | 96 | 83.2

Taken from above:
In loss of total cells ([1]; 11.11 µM) [%], Nc1ccc(C(=O)O)cc1 is listed with 0.8
In synaptosome phagocytosis ([2]; 5.56 µM) [%], O=C(O)c1ccccc1 is listed with 105
In loss of total cells ([1]; 5.56 µM) [%], N=C(N)NC(=N)NCCc1ccccc1 is listed with 2.7
